One test concerns the target COG1_Q8WTW3_584_HIVDCIR (UniProt Q8WTW3). As to the kind of experiment: probe-labelled cysteine peptide fold change vs DMSO (competition) (log2 fold change); higher = less target engagement (more negative = stronger competition). The conditions noted are these: THP-1, incubation time: 4 h.
Test [1] addresses COPG2_Q9UBF2_662_HMFTNHIVFQFDCTNTLNDQLLEK (UniProt Q9UBF2). The description is as above. The conditions noted are these: THP-1, incubation time: 4 h.

Protein sequences, listed by entry. Tags and fused reporters are not part of them. Lines headed by an entry give the natural chain unless they say otherwise; changes in a name come on top.
UniProt Q8WTW3: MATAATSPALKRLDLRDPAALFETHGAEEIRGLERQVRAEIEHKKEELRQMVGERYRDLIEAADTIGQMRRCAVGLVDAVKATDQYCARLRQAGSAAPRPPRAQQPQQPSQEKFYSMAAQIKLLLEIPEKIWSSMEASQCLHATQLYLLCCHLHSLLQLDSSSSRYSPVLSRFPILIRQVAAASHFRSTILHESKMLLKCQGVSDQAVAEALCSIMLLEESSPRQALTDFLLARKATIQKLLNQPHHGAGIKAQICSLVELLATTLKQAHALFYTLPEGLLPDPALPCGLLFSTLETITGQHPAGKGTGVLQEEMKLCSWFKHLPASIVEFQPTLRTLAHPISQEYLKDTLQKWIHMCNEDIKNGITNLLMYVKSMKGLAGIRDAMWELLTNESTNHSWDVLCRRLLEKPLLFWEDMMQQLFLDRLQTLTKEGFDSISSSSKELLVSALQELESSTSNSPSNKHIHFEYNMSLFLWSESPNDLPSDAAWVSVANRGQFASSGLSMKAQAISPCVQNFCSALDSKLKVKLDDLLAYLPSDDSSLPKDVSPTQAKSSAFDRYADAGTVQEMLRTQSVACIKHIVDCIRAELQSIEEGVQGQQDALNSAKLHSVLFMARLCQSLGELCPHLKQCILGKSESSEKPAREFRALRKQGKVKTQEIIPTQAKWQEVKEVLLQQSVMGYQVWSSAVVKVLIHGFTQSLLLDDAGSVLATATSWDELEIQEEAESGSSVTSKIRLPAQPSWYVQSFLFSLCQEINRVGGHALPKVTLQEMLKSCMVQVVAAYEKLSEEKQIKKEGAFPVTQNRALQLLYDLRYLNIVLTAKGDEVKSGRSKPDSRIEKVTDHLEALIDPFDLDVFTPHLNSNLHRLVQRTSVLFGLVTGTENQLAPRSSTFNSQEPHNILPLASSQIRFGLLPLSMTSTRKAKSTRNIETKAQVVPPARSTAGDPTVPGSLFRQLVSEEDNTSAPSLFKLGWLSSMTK
UniProt Q9UBF2: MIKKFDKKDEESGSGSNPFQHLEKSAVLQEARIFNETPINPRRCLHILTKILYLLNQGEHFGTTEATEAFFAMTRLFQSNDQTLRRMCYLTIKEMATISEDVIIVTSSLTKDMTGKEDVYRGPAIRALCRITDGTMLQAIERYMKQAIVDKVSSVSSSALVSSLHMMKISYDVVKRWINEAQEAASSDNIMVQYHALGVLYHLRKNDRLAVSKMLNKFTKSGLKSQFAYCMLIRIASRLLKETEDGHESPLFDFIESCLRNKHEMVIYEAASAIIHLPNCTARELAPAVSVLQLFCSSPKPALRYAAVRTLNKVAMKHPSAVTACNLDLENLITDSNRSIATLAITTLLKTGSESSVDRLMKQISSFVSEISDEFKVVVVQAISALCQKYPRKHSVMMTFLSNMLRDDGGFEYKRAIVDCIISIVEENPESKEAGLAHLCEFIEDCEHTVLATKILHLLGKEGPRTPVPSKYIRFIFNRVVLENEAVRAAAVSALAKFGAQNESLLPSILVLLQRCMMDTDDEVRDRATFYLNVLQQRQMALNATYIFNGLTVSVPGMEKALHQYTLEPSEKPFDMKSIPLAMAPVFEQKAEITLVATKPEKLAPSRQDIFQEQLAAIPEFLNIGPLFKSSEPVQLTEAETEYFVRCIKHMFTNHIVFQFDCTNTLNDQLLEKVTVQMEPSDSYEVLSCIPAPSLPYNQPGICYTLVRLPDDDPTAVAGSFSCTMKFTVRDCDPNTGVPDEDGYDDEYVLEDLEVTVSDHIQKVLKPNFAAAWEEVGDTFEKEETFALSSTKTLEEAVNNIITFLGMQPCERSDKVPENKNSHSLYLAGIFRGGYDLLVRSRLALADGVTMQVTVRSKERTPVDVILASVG

Results on one molecule are retold here after the supplement of paper PMC12067093, “Discovery and optimisation of a covalent ligand for TRIM25 and its application to targeted protein ubiquitination” (Chemical Science, 2025).

SMILES strings stand for the structures. This is one part of the list.
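Further: competitive profiling in live THP-1 cells: cysteine peptides tagged with an iodoacetamide desthiobiotin (IA-DTB) probe, intensity after compound treatment relative to DMSO-treated cells.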

Take `Cc1cc(C(=O)N2CCCN(C(=O)CCl)CC2)ccc1-c1ccccc1` [compound 10]: the “probe-labelled cysteine peptide fold change” value is 0.137 with COG1_Q8WTW3_584_HIVDCIR (10 µM), 0.244 in the test with COG1_Q8WTW3_584_HIVDCIR (50 µM), -0.262 in test [1] (10 µM) and -0.255 in test [1] (50 µM).
